Paper doi:10.1101/2025.11.13.683933
These are yes or no findings as the source states them, for the method shown. In cells and extracts the contact can be indirect. Some results given as binding are weak or reduced against the parent protein; the word gives no strength.

Sequences of proteins named here, by UniProt entry; tags and fusion partners are left off. A change or cut given only in a name is not applied to a line headed by its entry.
UniProt Q9GZV5: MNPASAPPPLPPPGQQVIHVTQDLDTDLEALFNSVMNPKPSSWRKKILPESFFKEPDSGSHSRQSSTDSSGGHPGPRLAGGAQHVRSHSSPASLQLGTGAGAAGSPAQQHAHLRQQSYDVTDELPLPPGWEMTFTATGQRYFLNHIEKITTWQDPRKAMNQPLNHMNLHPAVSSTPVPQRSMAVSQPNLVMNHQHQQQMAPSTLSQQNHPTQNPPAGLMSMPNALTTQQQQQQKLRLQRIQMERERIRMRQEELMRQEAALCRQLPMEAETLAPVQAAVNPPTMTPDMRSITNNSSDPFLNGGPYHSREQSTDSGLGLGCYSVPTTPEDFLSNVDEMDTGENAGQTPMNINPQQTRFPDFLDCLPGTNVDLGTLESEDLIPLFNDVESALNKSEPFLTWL
UniProt Q15562: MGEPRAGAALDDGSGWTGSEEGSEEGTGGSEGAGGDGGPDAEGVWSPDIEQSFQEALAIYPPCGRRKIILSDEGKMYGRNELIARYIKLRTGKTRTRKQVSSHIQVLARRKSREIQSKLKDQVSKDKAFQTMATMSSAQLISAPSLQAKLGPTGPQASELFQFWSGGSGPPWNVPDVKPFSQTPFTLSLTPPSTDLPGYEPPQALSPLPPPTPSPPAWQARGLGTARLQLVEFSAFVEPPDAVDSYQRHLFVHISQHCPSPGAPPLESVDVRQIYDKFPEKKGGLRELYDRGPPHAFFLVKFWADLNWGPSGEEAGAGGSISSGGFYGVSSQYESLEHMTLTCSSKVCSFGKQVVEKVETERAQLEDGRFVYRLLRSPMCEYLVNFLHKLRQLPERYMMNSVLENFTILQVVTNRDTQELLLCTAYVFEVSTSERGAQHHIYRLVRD
UniProt P05412: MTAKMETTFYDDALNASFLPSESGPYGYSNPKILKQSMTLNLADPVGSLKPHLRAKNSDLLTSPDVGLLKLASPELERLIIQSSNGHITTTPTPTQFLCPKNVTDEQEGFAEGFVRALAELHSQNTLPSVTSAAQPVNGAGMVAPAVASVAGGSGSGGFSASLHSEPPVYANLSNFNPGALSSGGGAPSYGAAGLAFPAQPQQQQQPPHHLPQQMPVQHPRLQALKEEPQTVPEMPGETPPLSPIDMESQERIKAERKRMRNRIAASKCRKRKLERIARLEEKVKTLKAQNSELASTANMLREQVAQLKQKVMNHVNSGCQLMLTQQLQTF
UniProt P53539: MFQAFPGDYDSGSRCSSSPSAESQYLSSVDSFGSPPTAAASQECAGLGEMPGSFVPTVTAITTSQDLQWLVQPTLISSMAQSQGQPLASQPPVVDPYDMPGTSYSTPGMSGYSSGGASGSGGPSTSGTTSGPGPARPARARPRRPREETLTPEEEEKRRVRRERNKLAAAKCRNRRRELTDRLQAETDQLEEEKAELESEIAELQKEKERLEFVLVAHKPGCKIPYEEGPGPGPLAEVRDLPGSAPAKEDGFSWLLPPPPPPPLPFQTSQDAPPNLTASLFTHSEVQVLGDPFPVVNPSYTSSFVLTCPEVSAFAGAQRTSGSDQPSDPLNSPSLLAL

Target: transcriptional co-activator with PDZ-binding motif (TAZ) (human (endogenous in AGS and GA0518)) (UniProt Q9GZV5)
Assay: co-IP

Substance	binding
TEAD2 (from UniProt Q15562 1-447)	binds
AP-1 heterodimer (c-JUN and FOSB) (from UniProt P05412;P53539) (complex)	binds
